# Taken from: PubChem BioAssay AID504784 (Drosophila RNAi Screening Center, 2011)
# Aim: 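Fly genes whose silencing alters how much lipid cells keep in droplets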 (primary screen)
# System: Drosophila Kc167 embryonic cells
# Reagent: long dsRNA against Drosophila genes, about 250 ng dsRNA per well
# Timing: 4 days
# Challenge: cells fed 400 µM oleic acid bound to BSA
# Measurement: 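Cells imaged and segmented; ratio of lipid droplet area to nuclear area, log-transformed, then normalised as a B-score over the screen; higher means more stored lipid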
# Direction: droplet/nuclear area B-score: higher = more stored lipid (overstorage)
# The deposit covers about 17,000 reagents; this is a random part of those with a known target gene and a result. 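Each column is one replicate's B-score; the combined score over replicates was not deposited, so single values may mislead.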 Reagents against one gene are numbered here. Names joined by + are all predicted targets of the reagent. Not all columns of the deposit are shown.
Gene,reagent no.,"droplet/nuclear area B-score, replicate 1"
CtsK2,1,2.59
eca,1,-1
CG3473,1,-0.68
asf1,1,0.156
CG32806,1,1.1
CG13280,1,0.239
CG14071,1,0.511
Gdap1,1,0.653
Usp32,1,-1.2
bbc,1,0.623
bbc,2,-0.238
CG42789,1,-0.531
Acat1,1,0.986
Tfb4,1,-0.105
dar1,1,-0.676
CG15498,1,0.539
CG33330 (retired record),1,0.186
CG33330 (retired record),2,-0.136
fj,1,0.195
Tdc1,1,2.2
CG9555,1,-2.41
Rtca,1,-0.769
CG1024,1,-0.743
a,1,10.9
a,2,0.86
CG15219,1,-0.417
CG15048 (retired record),1,0.918
scyl,1,-0.118
CG7691,1,1.05
GstE9,1,-1.04
CCT8,1,0.508
twz,1,0.601
Cyp4d2,1,-1.55
CG3407,1,0.0651
Amnionless,1,0.466
eIF2A,1,0.433
CG11755,1,0.108
Rpt2,1,-0.784
Lcp3,1,0.181
Dfd,1,1.26
CG14693,1,-0.639
CG1418,1,0.262
Slip1,1,0.322
pelo,1,-1.01
tomboy20,1,-0.00961
mldr,1,-0.00135
SK,1,-0.158
SK,2,-0.263
SK,3,-1.36
SK,4,-0.553
SK,5,-0.469
SK,6,2.95
Map60,1,-1.55
Grx1,1,2.05
CG13445,1,4.93
hui,1,1.53

The list goes on (3 carried over from the part before).
Gene,reagent no.,"droplet/nuclear area B-score, replicate 1"
Grx1,1,2.05
CG13445,1,4.93
hui,1,1.53
pps,1,2.94
Ire1,1,4.65
Fbxo42,1,-0.251
CG33109,1,-1.94
CG44838,1,-2
CG44838,2,-0.828
CG32241,1,0.109
CG32241,2,-0.472
bowl,1,3.67
miple2,1,-0.712
boi,1,-0.495
boi,2,0.794
CG13154,1,0.707
Ptpmeg2,1,0.314
Ptpmeg2,2,0.054
Ptpmeg2,3,-0.704
CG34423 + Mthfs,1,-1.27
side-III,1,-1.11
side-III,2,2.24
side-III,3,-1.58
CG14034,1,-0.149
RpS27A,1,2.77
tst + CG10375,1,-0.109
CG1314,1,0.226
CG1888,1,-1.65
Syx6,1,0.117
CG7546,1,-0.982
CG7546,2,0.455
CG7546,3,-0.954
GstT2,1,0.312
sff,1,1.23
psd,1,1.03
Nach,1,1.42
Rb97D,1,1.75
CG15044,1,0.0547
CG15044,2,-0.679
Fer3HCH,1,-0.0176
Ipk2,1,0.742
yellow-g,1,0.8
noc,1,0.934
CG15861,1,1.25
Rbp6,1,-0.00373
Rbp6,2,0.0934
Rbp6,3,-3.82
mRpL51,1,3.81
CG1701,1,0.058
nAChRbeta1,1,0.506
nAChRbeta1,2,0.39
CG14177 (retired record),1,-0.00201
